Assay results: the supplement of paper PMC7666118
Some of the results follow.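 How the source made its calls: active = dose-dependent thermal stabilisation significant by F-test of dose-response against flat model at 10% FDR; inactive = not significant.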

Protein sequences, listed by entry. Tags and fused reporters are not part of them. Lines headed by an entry give the natural chain unless they say otherwise; changes in a name come on top.
UniProt O00746: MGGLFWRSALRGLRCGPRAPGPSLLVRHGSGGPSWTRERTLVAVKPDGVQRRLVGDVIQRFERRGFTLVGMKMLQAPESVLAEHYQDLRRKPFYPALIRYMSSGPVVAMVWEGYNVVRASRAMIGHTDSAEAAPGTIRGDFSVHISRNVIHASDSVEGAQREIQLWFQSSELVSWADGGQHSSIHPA
UniProt Q9UMS0: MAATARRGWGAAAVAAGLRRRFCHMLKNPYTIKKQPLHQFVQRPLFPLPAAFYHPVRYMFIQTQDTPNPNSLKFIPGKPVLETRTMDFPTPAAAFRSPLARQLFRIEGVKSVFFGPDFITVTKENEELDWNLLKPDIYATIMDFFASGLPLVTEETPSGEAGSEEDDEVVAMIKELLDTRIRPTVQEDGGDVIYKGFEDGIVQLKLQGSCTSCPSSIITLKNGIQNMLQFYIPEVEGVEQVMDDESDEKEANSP
UniProt Q6VY07, whole entry, looked up: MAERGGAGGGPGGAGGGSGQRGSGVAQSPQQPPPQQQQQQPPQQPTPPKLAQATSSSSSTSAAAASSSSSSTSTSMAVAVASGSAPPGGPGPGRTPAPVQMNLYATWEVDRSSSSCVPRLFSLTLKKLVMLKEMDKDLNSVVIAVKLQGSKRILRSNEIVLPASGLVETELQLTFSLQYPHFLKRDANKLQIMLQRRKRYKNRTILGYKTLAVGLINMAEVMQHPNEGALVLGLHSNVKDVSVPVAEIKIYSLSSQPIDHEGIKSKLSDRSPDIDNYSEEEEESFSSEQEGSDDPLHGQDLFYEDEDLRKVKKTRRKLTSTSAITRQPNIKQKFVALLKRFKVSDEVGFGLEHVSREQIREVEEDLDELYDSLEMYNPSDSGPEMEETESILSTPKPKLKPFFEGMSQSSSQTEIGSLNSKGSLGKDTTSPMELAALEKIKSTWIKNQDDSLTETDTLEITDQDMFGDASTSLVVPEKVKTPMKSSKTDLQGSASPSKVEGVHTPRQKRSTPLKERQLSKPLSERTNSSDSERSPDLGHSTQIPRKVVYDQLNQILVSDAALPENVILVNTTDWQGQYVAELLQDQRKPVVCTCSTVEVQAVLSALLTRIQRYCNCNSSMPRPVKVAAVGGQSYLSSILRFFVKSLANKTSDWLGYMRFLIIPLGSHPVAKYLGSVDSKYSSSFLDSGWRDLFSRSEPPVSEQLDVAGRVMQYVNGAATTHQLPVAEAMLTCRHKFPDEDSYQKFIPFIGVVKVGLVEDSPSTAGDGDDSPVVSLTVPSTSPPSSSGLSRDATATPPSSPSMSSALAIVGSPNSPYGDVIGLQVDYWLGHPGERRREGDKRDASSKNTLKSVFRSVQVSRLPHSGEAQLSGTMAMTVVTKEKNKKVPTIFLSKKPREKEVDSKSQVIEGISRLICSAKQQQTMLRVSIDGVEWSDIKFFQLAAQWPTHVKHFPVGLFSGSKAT
UniProt P51003: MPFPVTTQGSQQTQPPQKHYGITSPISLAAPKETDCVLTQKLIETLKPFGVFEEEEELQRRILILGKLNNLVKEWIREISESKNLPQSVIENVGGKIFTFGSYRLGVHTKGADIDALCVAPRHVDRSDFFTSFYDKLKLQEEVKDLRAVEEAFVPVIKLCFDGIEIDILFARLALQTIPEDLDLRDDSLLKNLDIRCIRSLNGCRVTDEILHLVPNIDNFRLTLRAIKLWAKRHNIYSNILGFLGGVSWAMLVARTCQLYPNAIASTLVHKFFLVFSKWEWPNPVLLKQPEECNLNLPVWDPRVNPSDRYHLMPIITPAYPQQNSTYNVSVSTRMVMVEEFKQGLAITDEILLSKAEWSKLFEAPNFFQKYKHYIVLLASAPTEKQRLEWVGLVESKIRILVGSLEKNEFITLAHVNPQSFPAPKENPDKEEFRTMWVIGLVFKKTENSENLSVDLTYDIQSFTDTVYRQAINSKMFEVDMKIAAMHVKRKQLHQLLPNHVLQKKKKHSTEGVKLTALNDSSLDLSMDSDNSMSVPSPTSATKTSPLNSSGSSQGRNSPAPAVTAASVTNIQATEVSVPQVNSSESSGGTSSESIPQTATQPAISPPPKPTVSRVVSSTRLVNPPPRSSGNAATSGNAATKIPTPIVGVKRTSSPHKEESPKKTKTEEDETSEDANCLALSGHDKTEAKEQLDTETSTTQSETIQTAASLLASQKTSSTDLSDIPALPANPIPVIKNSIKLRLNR
UniProt Q5VZE5: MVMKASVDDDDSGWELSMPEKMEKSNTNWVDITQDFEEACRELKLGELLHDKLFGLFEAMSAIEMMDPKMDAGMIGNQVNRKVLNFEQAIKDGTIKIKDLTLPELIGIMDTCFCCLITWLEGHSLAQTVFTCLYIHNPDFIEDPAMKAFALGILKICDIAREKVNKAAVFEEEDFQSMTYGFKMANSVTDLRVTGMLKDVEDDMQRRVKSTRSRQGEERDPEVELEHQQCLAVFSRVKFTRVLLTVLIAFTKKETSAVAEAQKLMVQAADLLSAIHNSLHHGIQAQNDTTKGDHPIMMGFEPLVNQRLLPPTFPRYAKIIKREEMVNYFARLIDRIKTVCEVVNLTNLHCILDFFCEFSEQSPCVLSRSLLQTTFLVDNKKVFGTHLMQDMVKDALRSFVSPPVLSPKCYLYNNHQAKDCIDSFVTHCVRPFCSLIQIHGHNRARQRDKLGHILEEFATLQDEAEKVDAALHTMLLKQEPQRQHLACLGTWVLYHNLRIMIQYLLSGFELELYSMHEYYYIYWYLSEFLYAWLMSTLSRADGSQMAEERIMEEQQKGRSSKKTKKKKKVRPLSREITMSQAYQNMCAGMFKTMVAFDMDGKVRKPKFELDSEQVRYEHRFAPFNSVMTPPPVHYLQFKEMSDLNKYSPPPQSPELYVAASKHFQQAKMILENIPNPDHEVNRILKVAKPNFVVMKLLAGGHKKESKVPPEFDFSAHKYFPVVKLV
UniProt Q9Y6Q9, whole entry, looked up: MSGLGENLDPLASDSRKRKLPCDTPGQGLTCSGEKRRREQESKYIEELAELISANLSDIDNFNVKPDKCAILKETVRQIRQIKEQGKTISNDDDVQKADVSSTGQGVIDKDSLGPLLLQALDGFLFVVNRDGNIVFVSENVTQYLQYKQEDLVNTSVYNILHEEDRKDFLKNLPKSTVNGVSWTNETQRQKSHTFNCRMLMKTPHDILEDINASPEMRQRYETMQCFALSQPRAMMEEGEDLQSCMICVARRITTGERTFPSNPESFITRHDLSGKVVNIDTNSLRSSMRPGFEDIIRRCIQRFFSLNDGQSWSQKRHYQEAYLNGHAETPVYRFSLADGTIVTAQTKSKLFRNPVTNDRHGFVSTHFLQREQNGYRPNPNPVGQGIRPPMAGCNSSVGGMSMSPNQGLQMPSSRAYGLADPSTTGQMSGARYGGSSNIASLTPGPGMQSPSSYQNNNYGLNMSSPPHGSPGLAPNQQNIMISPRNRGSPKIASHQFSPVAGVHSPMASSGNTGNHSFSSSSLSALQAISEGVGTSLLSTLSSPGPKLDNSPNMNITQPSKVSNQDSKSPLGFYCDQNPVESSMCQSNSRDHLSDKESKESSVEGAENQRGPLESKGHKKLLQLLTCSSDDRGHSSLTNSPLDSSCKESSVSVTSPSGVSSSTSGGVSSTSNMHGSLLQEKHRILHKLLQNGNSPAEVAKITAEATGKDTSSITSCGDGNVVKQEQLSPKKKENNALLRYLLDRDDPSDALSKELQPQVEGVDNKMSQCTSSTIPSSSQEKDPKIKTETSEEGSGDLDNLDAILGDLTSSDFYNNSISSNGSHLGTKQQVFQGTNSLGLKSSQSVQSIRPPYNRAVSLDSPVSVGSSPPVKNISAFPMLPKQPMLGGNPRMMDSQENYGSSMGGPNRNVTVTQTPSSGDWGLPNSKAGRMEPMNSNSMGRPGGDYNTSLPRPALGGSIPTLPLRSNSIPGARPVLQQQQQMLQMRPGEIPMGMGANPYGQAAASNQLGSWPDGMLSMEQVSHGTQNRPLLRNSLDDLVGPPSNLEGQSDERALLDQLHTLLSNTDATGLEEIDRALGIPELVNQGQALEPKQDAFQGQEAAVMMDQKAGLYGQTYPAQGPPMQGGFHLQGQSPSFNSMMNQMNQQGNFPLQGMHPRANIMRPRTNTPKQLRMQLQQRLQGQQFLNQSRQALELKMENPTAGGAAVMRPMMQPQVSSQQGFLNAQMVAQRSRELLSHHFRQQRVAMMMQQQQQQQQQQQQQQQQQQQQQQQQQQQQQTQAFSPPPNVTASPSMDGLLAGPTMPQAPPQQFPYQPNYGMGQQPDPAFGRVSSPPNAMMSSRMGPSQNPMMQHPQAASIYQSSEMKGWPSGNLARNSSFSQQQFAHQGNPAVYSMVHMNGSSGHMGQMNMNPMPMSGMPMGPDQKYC
UniProt P56181: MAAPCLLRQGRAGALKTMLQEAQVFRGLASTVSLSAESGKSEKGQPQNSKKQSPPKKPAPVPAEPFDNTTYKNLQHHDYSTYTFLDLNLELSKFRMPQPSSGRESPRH
UniProt P68402: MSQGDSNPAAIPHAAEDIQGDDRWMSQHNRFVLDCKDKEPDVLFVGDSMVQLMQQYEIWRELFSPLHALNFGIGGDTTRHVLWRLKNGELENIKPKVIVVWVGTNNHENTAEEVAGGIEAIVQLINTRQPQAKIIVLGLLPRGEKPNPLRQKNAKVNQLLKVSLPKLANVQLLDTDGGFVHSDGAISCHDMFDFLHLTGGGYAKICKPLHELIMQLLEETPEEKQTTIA
UniProt Q53F19: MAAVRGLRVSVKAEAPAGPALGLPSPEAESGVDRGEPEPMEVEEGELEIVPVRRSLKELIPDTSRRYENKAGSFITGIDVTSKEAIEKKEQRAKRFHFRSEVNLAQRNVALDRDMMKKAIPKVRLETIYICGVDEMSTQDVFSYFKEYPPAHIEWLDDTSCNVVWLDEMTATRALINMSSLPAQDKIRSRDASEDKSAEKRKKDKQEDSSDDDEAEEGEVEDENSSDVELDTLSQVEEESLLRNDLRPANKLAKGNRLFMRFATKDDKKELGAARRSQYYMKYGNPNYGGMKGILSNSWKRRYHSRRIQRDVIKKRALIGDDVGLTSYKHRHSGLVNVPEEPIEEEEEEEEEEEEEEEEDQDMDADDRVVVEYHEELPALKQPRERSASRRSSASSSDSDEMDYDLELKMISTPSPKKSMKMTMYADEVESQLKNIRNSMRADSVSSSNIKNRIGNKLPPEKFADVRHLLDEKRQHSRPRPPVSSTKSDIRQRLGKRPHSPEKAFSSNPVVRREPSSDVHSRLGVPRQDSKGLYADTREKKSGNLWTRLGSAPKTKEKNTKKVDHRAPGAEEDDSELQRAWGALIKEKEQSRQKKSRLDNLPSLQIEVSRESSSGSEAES
UniProt Q9Y6K5: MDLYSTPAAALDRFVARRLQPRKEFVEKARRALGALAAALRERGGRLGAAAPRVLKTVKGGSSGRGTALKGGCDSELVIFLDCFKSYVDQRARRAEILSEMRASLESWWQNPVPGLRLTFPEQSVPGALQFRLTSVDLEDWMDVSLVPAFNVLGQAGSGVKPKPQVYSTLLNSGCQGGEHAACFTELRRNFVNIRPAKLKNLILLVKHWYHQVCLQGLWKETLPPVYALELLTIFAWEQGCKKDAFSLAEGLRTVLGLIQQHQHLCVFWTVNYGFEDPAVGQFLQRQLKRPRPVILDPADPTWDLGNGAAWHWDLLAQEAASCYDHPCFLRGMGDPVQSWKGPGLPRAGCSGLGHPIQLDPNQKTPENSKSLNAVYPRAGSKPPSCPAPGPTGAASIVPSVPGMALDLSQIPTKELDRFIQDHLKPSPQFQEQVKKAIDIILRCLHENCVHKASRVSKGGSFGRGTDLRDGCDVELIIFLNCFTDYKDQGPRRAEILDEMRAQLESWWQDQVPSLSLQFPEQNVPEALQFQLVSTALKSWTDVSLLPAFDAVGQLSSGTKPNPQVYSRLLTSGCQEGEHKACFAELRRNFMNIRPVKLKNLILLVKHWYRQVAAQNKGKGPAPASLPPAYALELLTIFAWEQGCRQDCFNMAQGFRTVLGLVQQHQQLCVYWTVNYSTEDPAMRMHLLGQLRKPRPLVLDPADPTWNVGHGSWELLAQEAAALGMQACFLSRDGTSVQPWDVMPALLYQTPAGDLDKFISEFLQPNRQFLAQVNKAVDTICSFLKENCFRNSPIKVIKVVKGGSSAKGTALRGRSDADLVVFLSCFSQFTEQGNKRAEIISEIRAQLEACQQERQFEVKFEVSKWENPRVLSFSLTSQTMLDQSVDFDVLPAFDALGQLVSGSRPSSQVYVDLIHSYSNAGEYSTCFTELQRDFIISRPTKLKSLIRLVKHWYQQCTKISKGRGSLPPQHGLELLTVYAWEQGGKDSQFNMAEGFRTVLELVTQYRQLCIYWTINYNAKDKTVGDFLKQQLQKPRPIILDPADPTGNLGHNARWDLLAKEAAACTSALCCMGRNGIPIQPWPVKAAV

compound: Nc1nc2c(ncn2[C@@H]2O[C@H](COP(=O)(O)OP(=O)(O)OP(=O)(O)O)[C@@H](O)[C@H]2O)c(=O)[nH]1; test: dose-dependent thermal stabilisation call (2D-TPP, DLPTP, 10% FDR) (binary (1 = stabilised)); higher = stabilised by the compound; conditions: system: Jurkat gel-filtered lysate; concentration range 1-500 µM

Target | dose-dependent thermal stabilisation call
NME4 (UniProt O00746) | active: 1
NUP160 (UniProt Q12769) | active: 1
NT5C3A (UniProt Q9H0P0) | inactive: 0
NUCKS1 (UniProt Q9H1E3) | inactive: 0
NFU1 (UniProt Q9UMS0) | inactive: 0
PAK1 (UniProt Q13153) | inactive: 0
PASK (UniProt Q96RG2) | inactive: 0
PACS1 (UniProt Q6VY07) | active: 1
NCDN (UniProt Q9UBB6) | inactive: 0
NELFB (UniProt Q8WX92) | inactive: 0
PACS2 (UniProt Q86VP3) | inactive: 0
NDRG3 (UniProt Q9UGV2) | inactive: 0
NRAS (UniProt P01111) | active: 1
PAPOLA (UniProt P51003) | inactive: 0
NSFL1C (UniProt Q9UNZ2) | inactive: 0
NUB1 (UniProt Q9Y5A7) | inactive: 0
NTPCR (UniProt Q9BSD7) | active: 1
ORC2 (UniProt Q13416) | inactive: 0

Target | dose-dependent thermal stabilisation call
NOP58 (UniProt Q9Y2X3) | inactive: 0
NAA35 (UniProt Q5VZE5) | active: 1
NEDD4 (UniProt P46934) | inactive: 0
NUDT15 (UniProt Q9NV35) | inactive: 0
NCOA3 (UniProt Q9Y6Q9) | inactive: 0
NDC80 (UniProt O14777) | inactive: 0
NPM3 (UniProt O75607) | inactive: 0
OGFOD2 (UniProt Q6N063) | active: 1
NDUFV3 (UniProt P56181) | inactive: 0
NFATC2 (UniProt Q13469) | active: 1
PAFAH1B2 (UniProt P68402) | inactive: 0
OSTF1 (UniProt Q92882) | inactive: 0
NCKIPSD (UniProt Q9NZQ3) | inactive: 0
NCBP3 (UniProt Q53F19) | inactive: 0
NCKAP1 (UniProt Q9Y2A7) | inactive: 0
NME2 (UniProt P22392) | inactive: 0
OAS3 (UniProt Q9Y6K5) | active: 1
NCAPG2 (UniProt Q86XI2) | active: 1
